No constants are given. Whether binding was seen depends on the method and setting. In cells and extracts the contact can be indirect. Some entries that bind do so weakly or less than the wild type.
How the values were obtained:
[1] = biological target: HIF-1α (mouse (endogenous in CD4+ T cells of C57BL/6 mice)) (UniProt Q61221); experiment: co-IP; HIF-1α/ARNT complexes in mouse CD4+ T cells treated with NOR (1, 3, 10, 30 µM) or TCDD (5 nM) in hypoxia; precipitating antibody not stated
[2] = biological target: aryl hydrocarbon receptor (mouse (endogenous in CD4+ T cells of C57BL/6 mice)) (UniProt P30561); experiment: co-IP; lysates (stronger RIPA buffer) of mouse CD4+ T cells treated with anti-CD3/CD28 (2 µg/ml), NOR (1, 3, 10, 30 µM) or TCDD (5 nM) in hypoxia for 24 h; precipitated with 1 µg anti-AhR antibody or IgG at 4 °C overnight, protein A/G agarose; western blotting

Sequences of proteins named here, by UniProt entry; tags and fusion partners are left off. Residues count along the entry.
UniProt Q61221: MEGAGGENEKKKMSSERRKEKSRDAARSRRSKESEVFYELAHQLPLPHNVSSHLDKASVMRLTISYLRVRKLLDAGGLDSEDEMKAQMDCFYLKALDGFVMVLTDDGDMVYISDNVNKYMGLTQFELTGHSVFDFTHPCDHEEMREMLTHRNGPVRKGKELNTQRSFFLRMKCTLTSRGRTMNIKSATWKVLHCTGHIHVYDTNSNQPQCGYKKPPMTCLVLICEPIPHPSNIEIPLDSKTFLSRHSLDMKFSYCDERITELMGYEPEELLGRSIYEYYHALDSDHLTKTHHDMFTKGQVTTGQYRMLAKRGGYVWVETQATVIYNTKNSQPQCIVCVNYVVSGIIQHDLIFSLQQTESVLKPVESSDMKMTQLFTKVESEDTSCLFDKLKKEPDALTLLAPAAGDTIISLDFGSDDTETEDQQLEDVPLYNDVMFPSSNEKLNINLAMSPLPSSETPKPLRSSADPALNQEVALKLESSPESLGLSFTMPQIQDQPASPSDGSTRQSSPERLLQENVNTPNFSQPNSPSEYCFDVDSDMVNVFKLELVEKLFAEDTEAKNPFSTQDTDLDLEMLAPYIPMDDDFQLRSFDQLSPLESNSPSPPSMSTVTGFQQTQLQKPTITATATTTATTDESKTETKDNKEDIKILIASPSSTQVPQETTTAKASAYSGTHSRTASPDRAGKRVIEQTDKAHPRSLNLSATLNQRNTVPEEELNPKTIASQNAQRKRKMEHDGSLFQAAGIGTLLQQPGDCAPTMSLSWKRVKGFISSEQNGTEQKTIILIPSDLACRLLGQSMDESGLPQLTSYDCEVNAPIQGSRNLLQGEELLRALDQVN
UniProt P30561, residues 10-848: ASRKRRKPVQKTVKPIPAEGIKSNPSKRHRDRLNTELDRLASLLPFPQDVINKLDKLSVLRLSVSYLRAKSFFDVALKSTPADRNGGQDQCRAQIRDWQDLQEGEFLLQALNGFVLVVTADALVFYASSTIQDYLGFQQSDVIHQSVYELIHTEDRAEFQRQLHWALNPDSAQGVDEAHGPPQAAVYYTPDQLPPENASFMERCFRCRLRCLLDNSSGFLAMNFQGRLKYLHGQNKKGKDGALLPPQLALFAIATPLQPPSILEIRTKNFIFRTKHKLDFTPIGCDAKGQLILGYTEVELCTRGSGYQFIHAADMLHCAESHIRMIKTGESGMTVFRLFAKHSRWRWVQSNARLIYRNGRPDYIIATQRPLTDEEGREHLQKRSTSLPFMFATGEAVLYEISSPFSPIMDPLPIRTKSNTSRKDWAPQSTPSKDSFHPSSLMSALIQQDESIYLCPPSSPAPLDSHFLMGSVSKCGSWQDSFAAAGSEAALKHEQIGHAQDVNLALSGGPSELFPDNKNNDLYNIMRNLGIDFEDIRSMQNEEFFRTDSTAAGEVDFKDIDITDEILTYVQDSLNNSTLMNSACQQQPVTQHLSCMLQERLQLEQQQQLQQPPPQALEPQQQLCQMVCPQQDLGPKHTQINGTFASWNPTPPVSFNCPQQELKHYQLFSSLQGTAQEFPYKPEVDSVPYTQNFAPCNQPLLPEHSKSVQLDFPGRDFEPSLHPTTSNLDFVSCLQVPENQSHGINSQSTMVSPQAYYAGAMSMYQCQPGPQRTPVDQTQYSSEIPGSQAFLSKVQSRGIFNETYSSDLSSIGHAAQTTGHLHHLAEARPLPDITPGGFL
UniProt P53762: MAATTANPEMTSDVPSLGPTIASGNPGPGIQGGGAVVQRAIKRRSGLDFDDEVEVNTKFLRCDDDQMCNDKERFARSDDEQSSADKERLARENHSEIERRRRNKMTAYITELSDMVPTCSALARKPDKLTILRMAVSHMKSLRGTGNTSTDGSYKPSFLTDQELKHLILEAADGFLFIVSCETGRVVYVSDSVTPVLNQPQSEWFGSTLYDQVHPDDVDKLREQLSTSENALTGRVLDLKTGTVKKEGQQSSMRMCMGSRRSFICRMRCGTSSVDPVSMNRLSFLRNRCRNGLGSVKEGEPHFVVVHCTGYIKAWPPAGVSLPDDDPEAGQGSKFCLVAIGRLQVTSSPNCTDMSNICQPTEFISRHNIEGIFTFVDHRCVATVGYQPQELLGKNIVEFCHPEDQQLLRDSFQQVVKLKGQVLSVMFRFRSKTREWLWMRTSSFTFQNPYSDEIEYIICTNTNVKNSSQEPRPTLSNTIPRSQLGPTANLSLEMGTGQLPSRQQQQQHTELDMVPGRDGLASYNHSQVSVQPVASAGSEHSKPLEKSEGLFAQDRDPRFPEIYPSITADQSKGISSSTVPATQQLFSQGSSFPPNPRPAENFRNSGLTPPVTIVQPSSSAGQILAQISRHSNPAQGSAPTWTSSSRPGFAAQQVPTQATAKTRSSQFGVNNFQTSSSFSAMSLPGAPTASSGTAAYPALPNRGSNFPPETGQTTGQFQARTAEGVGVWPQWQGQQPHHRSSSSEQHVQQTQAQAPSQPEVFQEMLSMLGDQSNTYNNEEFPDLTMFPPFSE

Substance: ARNT (from UniProt P53762 1-791)
- binding [1]: binds
- binding [2]: binds

From publication PMC5833367
